PubChem BioAssay AID504467 (National Center for Advancing Translational Sciences (NCATS), 2011)
About 7,700 (2.3%) of roughly 330,000 compounds were called active. The shares of active, inactive and inconclusive entries below differ from those in the screen. The call rests on the fitted dose curve; in most records, active means well fitted inhibition curve with a large enough effect; inconclusive means small, poorly fitted or top-dose-only effect, or effect the other way; inactive means flat fitted curve, though single readings scatter. Potencies of inconclusive entries are doubtful fits and often do not repeat.

Test: qHTS screen for small molecules that inhibit ELG1-dependent DNA repair in human embryonic kidney (HEK293T) cells expressing luciferase-tagged ELG1; further: nearly all actives have a fitted effect of over 55% in size
Details: HEK293T ELG1-luciferase reporter, luminescence, 16 h, DNA damage induced by 5-fluorouridine; activity change, negative = inhibition: at 46.1 µM (top of the series)
In short: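 Step one: seed 2,000 cells per well. Step two: pin-transfer compound or DMSO alongside 5-fluorouridine. Step three: incubate 16 hr, 37 °C, 5% CO2. Step four: add ONE-Glo, wait 30 min, read luminescence.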
On the % scale 0 is the no-effect control and ±100 the full control effect; potency means the concentration at half of the fitted maximal effect.

Question: Which “activity change, negative = inhibition” value does the source give for `CCC/C=C(\CCC)C(NC(=O)OCC(C)C)c1ccc(C(=O)OC)cc1` (stereo not given) here?
Answer: The value was inactive: 11.8%.

Question: For `COc1ccc(C(CCN2CCOCC2)c2c(OC)cc(OC)c3ccc(=O)oc23)cc1` (stereo not given), which Potency is on record?
Answer: Its Potency is inconclusive: 20.6 µM [activator, single point].

Question: Which “activity change, negative = inhibition” value does the source give for `CC(=O)c1c(N2CCN(Cc3ccccc3)CC2)nc(=S)n(-c2ccccc2)c1C` here?
Answer: Its value is inactive: 3.07%.

Question: For `CCCCNC(=O)C1CCC(CNS(=O)(=O)c2ccc(C)cc2)CC1` (stereo not given), which “activity change, negative = inhibition” value is on record?
Answer: Its value is inactive: -7.7%.

Question: For `Cc1cc(NC(=O)CSc2cn(CCNC(=O)c3ccccc3)c3ccccc23)no1`, which Potency is on record?
Answer: Its Potency is inconclusive: 32.6 µM [inhibitor, single point].

Question: Which Potency does the source give for `CCOC(=O)c1cnc(SCC(=O)c2ccc(C)cc2)nc1N` here?
Answer: The Potency was inconclusive: 18.4 µM [activator, partial curve, poor fit].

Question: Which Potency does the source give for `Cc1cc(C)n2nc(SCc3nnc(-c4cccs4)o3)nc2n1` here?
Answer: Its Potency is inconclusive: 13 µM [activator, partial curve, poor fit].

Question: Which Potency does the source give for `CC(C)Oc1ncnc2c1[nH]c1ccccc12` here?
Answer: The Potency was inconclusive: 4.11 µM [inhibitor, single point].

Question: For `Cc1ccc(NC(=O)C(C)SCc2ccccc2)cc1` (stereo not given), which Potency is on record?
Answer: Its Potency is inconclusive: 23.1 µM [activator, single point].

Question: For `COCCNC(=O)C(C)OC(=O)C1=Cc2ccccc2OC1` (stereo not given), which “activity change, negative = inhibition” value is on record?
Answer: Its value is inactive: 12.8%.

Question: With `COc1cccc(N2CCN(CC(=O)Nc3ccccc3C(=O)NCc3ccccc3)CC2)c1` as the compound, how does the Potency read?
Answer: The Potency was inconclusive: 7.94 µM [inhibitor, partial curve].

Question: With `CC(Nc1ccc2c(c1)OCCO2)C(=O)N1c2ccccc2CC1C` (stereo not given) as the compound, how does the Potency read?
Answer: Its Potency is inconclusive: 0.92 µM [activator, full curve, poor fit].

Question: For `Cc1cc(NC(=O)CSc2nc3c(cc2C#N)CCC3)no1`, which Potency is on record?
Answer: The Potency was inconclusive: 3.66 µM [activator, full curve].

Question: Which “activity change, negative = inhibition” value does the source give for `N#Cc1ccccc1COC(=O)CCC(=O)c1cccs1` here?
Answer: The value was inactive: 10.8%.

Question: With `CCCCCCn1c(SCCC)nc2c1c(=O)[nH]c(=O)n2C` as the compound, how does the Potency read?
Answer: Its Potency is inconclusive: 2.31 µM [activator, partial curve, poor fit].

Question: With `COc1cc2ccccc2cc1C(=O)NC1CCCC1` as the compound, how does the Potency read?
Answer: The Potency was inconclusive: 16.4 µM [activator, partial curve].

Question: With `CS(=O)(=O)c1ccc(C(=O)OCC(=O)NC23CC4CC(CC(C4)C2)C3)cc1[N+](=O)[O-]` as the compound, how does the “activity change, negative = inhibition” value read?
Answer: Its value is inactive: 23.3%.

Question: Which “activity change, negative = inhibition” value does the source give for `COc1ccccc1-c1nnc(SCC(=O)O)n1C` here?
Answer: Its value is inactive: 10.6%.

Question: Which Potency does the source give for `COc1ccc(C2=NNC(c3cccs3)=Nc3ccc(OC)cc32)cc1` here?
Answer: Its Potency is inconclusive: 29.1 µM [inhibitor, single point].

Question: With `CCc1ccc(N(C(=O)c2csnn2)C(C(=O)NCc2ccccc2)c2ccco2)cc1` (stereo not given) as the compound, how does the Potency read?
Answer: Its Potency is inconclusive: 18.4 µM [inhibitor, single point].

Question: With `CCOc1cc(CNc2ccc(N3CCCC3)cc2)cc(Cl)c1OC` as the compound, how does the Potency read?
Answer: The Potency was inconclusive: 20.6 µM [activator, single point].

Question: With `CCOC(=O)C(Cc1ccccc1)NC(=O)CCc1c(C)nc2ncnn2c1C` (stereo not given) as the compound, how does the “activity change, negative = inhibition” value read?
Answer: The value was inactive: 1.43%.

Question: Which Potency does the source give for `CCc1cc(=S)n2c([nH]c3ccccc32)c1C#N` here?
Answer: The Potency was inconclusive: 29.1 µM [inhibitor, single point].

Question: Which Potency does the source give for `Cc1ccc(NNC(=O)c2snnc2C)cc1Cl` here?
Answer: The Potency was inconclusive: 23.1 µM [activator, partial curve].

Question: Which “activity change, negative = inhibition” value does the source give for `CCOC(=O)CNC(=O)CSc1nc(N)cc(N)n1` here?
Answer: Its value is inactive: -7.11%.

Question: For `COc1ccc(NC(=O)Nc2nccs2)cc1`, which Potency is on record?
Answer: Its Potency is inconclusive: 16.4 µM [activator, partial curve, poor fit].

Question: With `CCOc1ccc(NS(=O)(=O)c2ccc3c(c2)N(C(C)=O)CCS3)cc1` as the compound, how does the “activity change, negative = inhibition” value read?
Answer: Its value is inactive: 1.15%.

Question: Which “activity change, negative = inhibition” value does the source give for `Cc1ccccc1N(C(=O)c1snc(C(N)=O)c1N)C(C(=O)NCC1CCCO1)c1ccc(F)cc1` (stereo not given) here?
Answer: The value was inactive: -8.74%.

Question: With `COc1ccc(C(=O)/C(=C\c2sccc2C)c2nc3ccccc3o2)cc1` as the compound, how does the Potency read?
Answer: Its Potency is inconclusive: 29.1 µM [activator, single point].

Question: For `O=C(O)c1ccc(-c2ccccc2Cl)o1`, which Potency is on record?
Answer: Its Potency is inconclusive: 12.6 µM [activator, single point].

Question: For `CCOC1(OCC)N=C(N)C2(C#N)C(c3cccc(C)c3)C12C#N` (stereo not given), which “activity change, negative = inhibition” value is on record?
Answer: Its value is inactive: 0.228%.

Question: With `COC(=O)Cn1c(N2CCCC2)nc2c1c(=O)n(C)c(=O)n2C` as the compound, how does the “activity change, negative = inhibition” value read?
Answer: Its value is inactive: 0.136%.

Question: Which Potency does the source give for `O=C1/C(=C\c2ccco2)SC(=S)N1c1ccccc1` here?
Answer: Its Potency is inconclusive: 16.4 µM [activator, partial curve].

Question: With `Cc1ccc(S(=O)(=O)N(C)C)cc1-n1c(SCC(=O)Nc2ccc(F)c(F)c2F)nc2ccccc2c1=O` as the compound, how does the Potency read?
Answer: The Potency was inconclusive: 14.6 µM [inhibitor, partial curve, poor fit].

Question: With `CC(C)NC(=O)N(O)C1N(C(C)C)C(=O)N(Cc2ccc3c(c2)OCO3)C1(C)C` (stereo not given) as the compound, how does the Potency read?
Answer: The Potency was inconclusive: 6.51 µM [activator, partial curve, poor fit].

Question: Which Potency does the source give for `O=C(CCN1C(=O)/C(=C/c2ccc3c(c2)OCO3)SC1=S)Nc1ccccc1` here?
Answer: The Potency was inconclusive: 29.1 µM [activator, single point].

Question: Which Potency does the source give for `CC(OC(=O)c1cc(S(=O)(=O)N(C)c2ccccc2)ccc1Cl)C(=O)Nc1ccc2c(c1)OCCO2` (stereo not given) here?
Answer: Its Potency is inconclusive: 29.1 µM [inhibitor, single point].

Question: For `CCN(C(=O)COC(=O)c1cc([N+](=O)[O-])ccc1N1CCOCC1)C1CCCCC1`, which “activity change, negative = inhibition” value is on record?
Answer: Its value is inactive: -5.02%.

Question: Which “activity change, negative = inhibition” value does the source give for `COc1cc2cc(C)c(SCC(=O)N3CCOCC3)nc2cc1OC` here?
Answer: The value was inactive: -28.6%.

Question: With `O=c1[nH]c(CCl)nc2cc(-c3ccc(Cl)cc3)sc12` as the compound, how does the Potency read?
Answer: Its Potency is inconclusive: 2.31 µM [activator, partial curve].

Question: For `Cc1nc(SCc2ccc(Br)cc2)[nH]c(=O)c1C`, which Potency is on record?
Answer: Its Potency is inconclusive: 7.31 µM [activator, partial curve].

Question: Which Potency does the source give for `COc1ccc(C(=O)CN2C(=O)c3ccccc3S2(=O)=O)cc1` here?
Answer: The Potency was inconclusive: 29.1 µM [inhibitor, single point].

Question: With `O=C(c1cc2c(=O)n3ccccc3nc2s1)N1CCOCC1` as the compound, how does the Potency read?
Answer: The Potency was inconclusive: 1.84 µM [activator, full curve].

Question: Which Potency does the source give for `O=C(COc1ccccc1)Nc1ccc(NC(=O)c2ccco2)cc1` here?
Answer: The Potency was inconclusive: 18.3 µM [activator, single point].

Question: For `COc1ccc(OC)c(C2C3CN(C(C)C)CC=C3C(C#N)=C(N)C2(C#N)C#N)c1` (stereo not given), which Potency is on record?
Answer: The Potency was inconclusive: 1.84 µM [inhibitor, partial curve, poor fit].
